PubChem BioAssay AID1224830 | NIAID, 2016
Assay: 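Genes whose knock-down alters the TNF-alpha reporter response to LPS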 (primary screen). Cells: human THP-1 monocytic leukaemia cells, TNF dual-luciferase reporter clone, PMA-differentiated to macrophage-like cells. Knock-down reagent: siRNA pool against human genes, 50 nM. Time to read-out: LPS for 4 h, given about 3 days after siRNA transfection. Treatment: bacterial LPS (TLR4 ligand), 10 ng/ml. Measurement: 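Ratio of firefly to renilla light, scaled to the plate median and expressed as a robust z-score per replicate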. Direction: TNF reporter robust z-score: higher = stronger TNF reporter response to LPS. Rule for the call: 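Each well counts as active if its z-score is over 2.8 or under -1.5; controls are left without a call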.
The deposit covers about 18,000 reagents; shown is a random part of them. About 2,900 of them (16%) were called active. 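Calls are made per well; low scores hint the gene aids the LPS response, high scores that it dampens it.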 Entries without a mark were called inactive. Repeated entries: four replicate wells of each siRNA pool.

| target | TNF reporter robust z-score |
| --- | --- |
| PLEKHH3 | 0.83 |
| PLEKHH3 | -0.14 |
| PLEKHH3 | 0.61 |
| PLEKHH3 | 0.18 |
| POP7 | 1.38 |
| POP7 | 0.23 |
| POP7 | 1.87 |
| POP7 | 1.17 |
| GUCY1B1 | -0.79 |
| GUCY1B1 | -0.91 |
| GUCY1B1 | -1.25 |
| GUCY1B1 | -0.57 |
| GPATCH2 | -0.88 |
| GPATCH2 | -0.24 |
| GPATCH2 | -0.44 |
| GPATCH2 | -0.38 |
| PSG3 | 0.56 |
| PSG3 | 0.02 |
| PSG3 | -0.51 |
| PSG3 | 0.55 |
| TCEAL3 | -0.29 |
| TCEAL3 | -0.67 |
| TCEAL3 | 0.01 |
| TCEAL3 | 0.08 |
| HLA-DPA1 | 2.19 |
| HLA-DPA1 | 2.51 |
| HLA-DPA1 | 1.26 |
| HLA-DPA1 | 2.11 |
| DDX42 | -0.48 |
| DDX42 | -0.24 |
| DDX42 | 0.14 |
| DDX42 | 0.39 |
| ABCA3 | 1.35 |
| ABCA3 | 0.49 |
| ABCA3 | 1.1 |
| ABCA3 | 0.7 |
| KAT7 | -1.23 |
| KAT7 | -1.6 (active) |
| KAT7 | -1.78 (active) |

Targets above whose gene name starts with H or h:
| target | TNF reporter robust z-score |
| --- | --- |
| HLA-DPA1 | 2.19 |
| HLA-DPA1 | 2.51 |
| HLA-DPA1 | 1.26 |
| HLA-DPA1 | 2.11 |

Next records follow:
| target | TNF reporter robust z-score |
| --- | --- |
| SLC9B2 | -0.78 |
| SLC9B2 | -0.16 |
| SLC9B2 | -0.58 |
| SLC9B2 | -0.46 |
| RAB13 | 1.19 |
| RAB13 | 0.93 |
| RAB13 | 1.18 |
| RAB13 | 1.07 |
| MMS22L | 0.27 |
| MMS22L | 0.89 |
| MMS22L | 0.33 |
| MMS22L | 1.23 |
| DPYSL2 | -0.82 |
| DPYSL2 | -1.12 |
| DPYSL2 | -1.58 (active) |
| DPYSL2 | -0.12 |
| ARFIP1 | -1.76 (active) |
| ARFIP1 | -1.39 |
| ARFIP1 | -1.62 (active) |
| ARFIP1 | -0.87 |
| ZNF513 | -0.35 |
| ZNF513 | -0.24 |
| ZNF513 | -1.07 |
| ZNF513 | -1.37 |
| ONECUT2 | -0.18 |
| ONECUT2 | -1.63 (active) |
| ONECUT2 | -1.85 (active) |
| ONECUT2 | -1.62 (active) |
| OR11H12 | -0.46 |
| OR11H12 | 0.04 |
| OR11H12 | -0.32 |
| OR11H12 | -0.17 |
| SHOX2 | -0.76 |
| SHOX2 | -1.02 |
| SHOX2 | -0.33 |
| SHOX2 | 0.68 |
